Measured values taken from PubChem BioAssay AID2685 (National Center for Advancing Translational Sciences (NCATS), 2010).
This is one part of the list. These are further read-outs of the screen, such as a control signal, another cell line or another target. No call is given for them. Most of these compounds were active or inconclusive in the main read-out, so they are no random draw. The note in brackets gives the kind of curve behind each potency; many fits are weak.

Assay: qHTS Assay for Lipid Storage Modulators in Drosophila S3 Cells;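 on cell number change: cells counted by Cell Tracker Red CMTPX staining in the red channel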
Conditions: BODIPY lipid droplet fluorescence, 18-24 h; for cell number change: measured here: cell count max response, cells fed with added oleic acid
Summary of the method: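 Drosophila S3 cells loaded with oleic acid (400 uM, as added) and compounds at several concentrations; lipid droplets imaged by 488-nm laser-scanning cytometry, 500–530 nm intensity and object ratio to cell channel. Percent activity normalized to 20 uM Triacsin C.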

[1] = measured here: cell number channel AC50, cells fed with added oleic acid
[2] = measured here: lipid fluorescence (Fed channel) AC50, cells fed with added oleic acid

In the case of `N#Cc1ccc(NC(=O)Nc2cccc(C#N)c2)cc1`, the cell number change is reported as -60.6% and the AC50 [1] is reported as 29.1 µM [falling, partial curve].

In the case of `CC(C)C(C(=O)Nc1ncn[nH]1)N1C(=O)c2ccccc2C1=O` (configuration not stated), the cell number change is reported as 75.2% and the AC50 [2] is reported as 29.1 µM [rising, single point].

In the case of `CCOC(=O)c1ccccc1NC(=O)COc1ccccc1`, the cell number change is reported as 5.89%.

For `COc1ccc(NC(=O)Cn2nc(C(=O)O)c3ccccc3c2=O)cc1OC`, the cell number change was -34.3%.

For `Cc1ccc(NC(=O)CCN2C(=O)C3CCCCC3C2=O)cc1[N+](=O)[O-]` (configuration not stated), the AC50 [2] was 29.1 µM [rising, single point].

For `COCCNCC(=O)NCC12CC3CC(CC(C3)C1)C2`, the cell number change was 2.6%.

With `CCOC(=O)Cn1nc(C)cc1NC(=O)c1ccncc1` the cell number change was 123%, the AC50 [1] was 1.3 µM [rising, full curve] and the AC50 [2] was 6.51 µM [rising, full curve].

For `CCOc1ccc(-c2nc(C#N)c(NCC3CCCO3)o2)cc1` (configuration not stated), the cell number change was 6.2%, the AC50 [1] was 6.51 µM [rising, single point] and the AC50 [2] was 8.2 µM [rising, partial curve].

Compound `O=C(COC(=O)C1CC1)Nc1ccc2[nH]c(=O)[nH]c2c1` has a cell number change of -32.3%.

In the case of `COc1ccc(/C=C(/NC(=O)c2ccccc2)C(=O)N/N=C/c2ccc3c(c2)OCO3)cc1OC`, the cell number change is reported as -24.5% and the AC50 [2] is reported as 1.3 µM [falling, partial curve].

In the case of `N/C(Cc1ccc([N+](=O)[O-])cc1)=N\OC(=O)c1ccco1`, the cell number change is reported as 17.5% and the AC50 [2] is reported as 18.4 µM [rising, single point].

For `O=C1C(CSCc2ccccc2)NC(=S)N1c1ccccc1` (configuration not stated), the cell number change was 12.6% and the AC50 [1] was 1.84 µM [rising, partial curve].

With `CCC(=O)N/N=c1/sc2ccccc2n1C` the cell number change was -50.1%, the AC50 [1] was 18.4 µM [falling, single point] and the AC50 [2] was 23.1 µM [falling, single point].

In the case of `CN(C)CCCNc1oc(-c2ccccc2Cl)nc1S(=O)(=O)c1ccccc1`, the cell number change is reported as -11.4% and the AC50 [2] is reported as 1.84 µM [falling, partial curve, poor fit].

In the case of `O=C(COC(=O)c1ccc(-n2cnnn2)cc1)Nc1cc(Cl)ccc1F`, the cell number change is reported as -33.6% and the AC50 [1] is reported as 25.9 µM [falling, partial curve].

With `Cc1noc(C)c1CSc1nnc(-c2ccncc2)n1-c1cccc(Cl)c1C` the AC50 [1] was 0.731 µM [rising, single point] and the AC50 [2] was 0.651 µM [rising, single point].

`Cc1ccc(OCCCn2c(CO)nc3ccccc32)cc1` gave a cell number change of -15.4%.

With `O=S(=O)(c1ccc(-n2cnnn2)cc1)N(C1CCCCC1)C1CCCCC1` the cell number change was -27.3% and the AC50 [2] was 0.116 µM [falling, full curve, poor fit].

In the case of `CN(C)CCCn1c(SCC(=O)Nc2sc3c(c2C#N)CCCC3)nnc1-c1ccncc1`, the cell number change is reported as 60.4% and the AC50 [1] is reported as 29.1 µM [rising, single point].

For `O=S(=O)(c1ccc(N=C2NN=C(c3cc(F)ccc3F)CS2)cc1)N1CCOCC1`, the cell number change was -7.23% and the AC50 [2] was 0.651 µM [rising, partial curve, poor fit].

With `CC(C)(C)c1cc(Br)ccc1OCC(=O)Nc1ncn[nH]1` the AC50 [1] was 6.51 µM [rising, partial curve, poor fit] and the AC50 [2] was 2.31 µM [rising, partial curve].

In the case of `Cc1ccc(F)cc1NC(=O)CN1C(=O)NC(C)(c2ccc3c(c2)OCCO3)C1=O` (configuration not stated), the cell number change is reported as -5.04%.

For `O=C(N/N=C\c1ccc(S(=O)(=O)O)o1)c1ccc2c(c1)OCO2`, the cell number change was 2.38% and the AC50 [2] was 0.58 µM [rising, single point].

With `C=CCc1cccc2cc(C(=O)Nc3ccc(CC(=O)O)cc3)c(=O)oc12` the cell number change was 12.8%, the AC50 [1] was 2.31 µM [rising, partial curve, poor fit] and the AC50 [2] was 2.31 µM [rising, partial curve, poor fit].

In the case of `O=C1COc2ccccc2N1Cc1ccc(Cl)cc1`, the cell number change is reported as -20.2%.

With `NC(=O)c1ncc(C(F)(F)F)cc1Cl` the cell number change was 33.4%, the AC50 [1] was 14.6 µM [rising, single point] and the AC50 [2] was 29.1 µM [rising, single point].

For `CCOC(=O)c1c(NC(=O)CSc2nnc(-c3cccnc3)n2Cc2ccco2)sc(C)c1C`, the cell number change was -18% and the AC50 [2] was 0.092 µM [rising, full curve, poor fit].

In the case of `CC(C)CSc1nnc2c3ccccc3n(C)c2n1`, the cell number change is reported as 8.8% and the AC50 [2] is reported as 29.1 µM [falling, single point].

With `N#CC1=CN(Cc2ccccc2)C=C(/C=N/Nc2ccccc2)C1` the cell number change was -20.3% and the AC50 [1] was 0.0082 µM [falling, full curve, poor fit].

In the case of `CCOC(=O)c1c(C)[nH]c(C)c1C(=O)CSc1nc2ccccc2c(=O)n1-c1ccc(C)cc1`, the cell number change is reported as 8.75% and the AC50 [2] is reported as 0.13 µM [rising, full curve].

`COc1ccc(CCNC(=O)CSc2nnc(-c3cccc(C)c3)o2)cc1OC` gave a cell number change of -18.8%.

For `Cc1ccc(OCC(=O)Nc2ccc(-c3nc4ncccc4o3)cc2)cc1`, the cell number change was 1.98% and the AC50 [2] was 2.59 µM [rising, single point].

For `COc1cccc2cc(C(=O)Nc3cc(Cl)ccc3N3CCOCC3)c(=O)oc12`, the cell number change was 6.16% and the AC50 [2] was 1.03 µM [falling, full curve, poor fit].

With `CC12CCC(=O)N1C(C(=O)OCC(=O)Nc1ccc(S(N)(=O)=O)cc1)CS2` (configuration not stated) the cell number change was 12% and the AC50 [1] was 0.00411 µM [rising, full curve, poor fit].

In the case of `O=C(COC(=O)c1ccccc1Br)NCCN1C(=O)CSC1=O`, the AC50 [1] is reported as 6.51 µM [falling, single point].

For `CCC1=NN2C(=N)/C(=C\c3ccc(OCCOc4ccccc4)c(OC)c3)C(=O)N=C2S1`, the cell number change was 14.7% and the AC50 [2] was 29.1 µM [rising, single point].

With `O=C1CC(N2CCN(c3ccc(F)cc3)CC2)C(=O)N1c1ccccc1` (configuration not stated) the cell number change was 18.7% and the AC50 [2] was 14.6 µM [rising, single point].

For `COc1ccc(-c2csc(NC(=O)CSc3nnnn3C)n2)cc1OC`, the cell number change was 2.12% and the AC50 [2] was 0.082 µM [rising, full curve, poor fit].

`O=C(Nc1ccc2c(c1)OCO2)C1CCN(C(=O)c2ccc([N+](=O)[O-])cc2)CC1` gave a cell number change of 35.7%.

In the case of `Cn1c(Cl)cnc1C1CC(=O)c2cc(Cl)ccc2O1` (configuration not stated), the cell number change is reported as -138%, the AC50 [1] is reported as 29.1 µM [falling, single point] and the AC50 [2] is reported as 29.1 µM [falling, single point].

With `O=C(NCc1ccccn1)c1ccc(OC2CCN(Cc3ccc(F)cc3F)CC2)cc1` the cell number change was 16.8% and the AC50 [2] was 6.51 µM [rising, single point].

For `O=C(CCc1nnc(C2(c3ccc(Cl)cc3)CCC2)o1)N1CCCC(O)C1` (configuration not stated), the cell number change was 15.2% and the AC50 [1] was 1.16 µM [rising, full curve, poor fit].

With `COc1ccc(N2CCN(C(=O)c3ccc(CS(=O)(=O)c4ccccc4C)o3)CC2)cc1` the cell number change was -0.288%.

Work on `CC(=O)N1CCN(c2ccc(NC(=O)c3ccccc3Cl)cc2)CC1` yielded a cell number change of -10.2%.

`COc1ccc(NC(=O)C2CCCN2S(=O)(=O)c2ccc(Cl)cc2)cc1` (configuration not stated) showed a cell number change of 28.6%.

In the case of `CC1CN(C(=O)c2ccc(S(=O)(=O)Nc3ccccc3Cl)cc2)CC(C)O1` (configuration not stated), the cell number change is reported as 22.2% and the AC50 [2] is reported as 22.4 µM [rising, single point].

For `COC(=O)CSc1nnc(-c2ccc(S(=O)(=O)N3CCCCC3)cc2)o1`, the cell number change was -27% and the AC50 [2] was 4.11 µM [falling, full curve].

For `CC(C)(C#N)NC(=O)c1ccco1`, the cell number change was -7.78% and the AC50 [2] was 1.46 µM [falling, full curve].

With `COc1ccccc1C(=O)N/C(=C/c1ccc2c(c1)OCO2)C(=O)Nc1ccc(C(=O)O)cc1` the cell number change was 9.17%.

In the case of `O=C(CCCN1C(=O)c2cccc3cccc(c23)C1=O)Nc1ccon1`, the cell number change is reported as -16% and the AC50 [2] is reported as 0.82 µM [falling, full curve, poor fit].

For `CNC(=O)/C(C#N)=C\c1ccc(CNS(=O)(=O)c2ccccc2)o1`, the cell number change was 3.13% and the AC50 [2] was 1.16 µM [falling, single point].

With `CCCn1nnc(NC(=O)c2ccco2)n1` the cell number change was -17.1% and the AC50 [2] was 1.03 µM [falling, full curve, poor fit].

With `O=C(COc1ccc(Cl)cc1Cl)NN1C(=O)C2C3C=CC([C@@H]2C1=O)C31CC1` (some centres not stated) the cell number change was 7.66% and the AC50 [2] was 29.1 µM [rising, single point].

In the case of `Cc1ccc(C(=O)OCC(=O)Nc2ccc(Cl)cn2)cc1S(=O)(=O)N1CCOCC1`, the cell number change is reported as -15.3%.

In the case of `Cc1cccc2c(C(=O)N3CCN(c4ccccc4)CC3)cc(-c3ccncc3)nc12`, the cell number change is reported as -31% and the AC50 [1] is reported as 20.6 µM [falling, single point].

In the case of `CC1CCc2nc(NCCO)nc(C(F)(F)F)c2C1` (configuration not stated), the cell number change is reported as 7.27%.

For `CCCSc1ccccc1C(=O)N1CCN(C(=O)c2ccco2)CC1`, the cell number change was -3.76% and the AC50 [2] was 29.1 µM [falling, single point].

For `CC1CCC(NC(=O)c2nn(C)c3c2CSc2ccccc2-3)CC1` (configuration not stated), the cell number change was 23.8% and the AC50 [2] was 29.1 µM [falling, single point].

For `Cc1cccc(OCCCCCn2ccnc2)c1`, the AC50 [2] was 29.1 µM [falling, single point].

With `COc1ccc(CN(C)CC2CCCN(CCc3ccc(F)cc3)C2)cc1OC` (configuration not stated) the cell number change was -13.2% and the AC50 [2] was 6.51 µM [falling, single point].

In the case of `Cc1ccccc1NC(=O)CCN1CCN(CCO)CC1`, the cell number change is reported as -0.549% and the AC50 [2] is reported as 0.92 µM [falling, full curve, poor fit].

In the case of `Cc1c(Cl)cccc1NC(=O)COC(=O)c1ccc(CN2CCCC2=O)cc1`, the cell number change is reported as -11.6%, the AC50 [1] is reported as 1.03 µM [rising, single point] and the AC50 [2] is reported as 5.17 µM [rising, single point].

In the case of `Cc1ccc(S(=O)(=O)Nc2ccccc2C=Nc2cccc(C)c2C)cc1`, the cell number change is reported as -26.1% and the AC50 [2] is reported as 18.4 µM [falling, single point].

For `Cc1cccc(NC(=O)C2(C)CC3c4ccccc4C2c2ccccc23)c1` (configuration not stated), the cell number change was -30.9% and the AC50 [1] was 29.1 µM [falling, single point].
